Data from article PMC9943654, “The recognition mode between hsRBFA and mitoribosome 12S rRNA during mitoribosomal biogenesis”.

Key:
Test in all cases: EMSA
[1] = target: T1, hsRBFA KH-like (Homo sapiens) (UniProt Q8N0V3); settings: EMSA: 20 mM Tris-HCl pH 8.0, 200 mM NaCl, 37 C 30 min, 200 nM ssRNA or 2 uM dsRNA; recombinant protein; residues 86-201; protein details: His6-MBP N-terminal
T1 sequence (looked up): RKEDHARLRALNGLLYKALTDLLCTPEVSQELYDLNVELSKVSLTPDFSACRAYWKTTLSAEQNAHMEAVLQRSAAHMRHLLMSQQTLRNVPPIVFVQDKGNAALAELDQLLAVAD

[2] = target: T2, hsRBFA Nt-KH (Homo sapiens) (UniProt Q8N0V3); settings: EMSA: 20 mM Tris-HCl pH 8.0, 200 mM NaCl, 37 C 30 min, 200 nM ssRNA or 2 uM dsRNA; recombinant protein; residues 42-201; protein details: His6-MBP N-terminal
T2 sequence (looked up): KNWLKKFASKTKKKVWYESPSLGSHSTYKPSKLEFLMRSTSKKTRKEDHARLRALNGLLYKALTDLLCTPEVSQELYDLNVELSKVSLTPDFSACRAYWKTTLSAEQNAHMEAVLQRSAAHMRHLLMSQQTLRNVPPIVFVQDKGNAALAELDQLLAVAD

[3] = tested on: MBP tag; settings: EMSA: 20 mM Tris-HCl pH 8.0, 200 mM NaCl, 37 C 30 min, 200 nM ssRNA or 2 uM dsRNA; recombinant protein; label: 5'-FAM in FP
[4] = tested on: hsRBFA A-mut E59A,E75A,E88A,D89A (Homo sapiens); settings: EMSA: 20 mM Tris-HCl pH 8.0, 200 mM NaCl, 37 C 30 min, 200 nM ssRNA or 2 uM dsRNA; recombinant protein; protein details: His6-MBP N-terminal; label: 5'-FAM in FP
[5] = target: hsRBFA B-mut K42A,K46A,K47A,K51A,K53A,K54A,K55A,K70A,K73A (Homo sapiens) (UniProt Q8N0V3); settings: EMSA: 20 mM Tris-HCl pH 8.0, 200 mM NaCl, 37 C 30 min, 200 nM ssRNA or 2 uM dsRNA; recombinant protein; protein details: His6-MBP N-terminal; label: 5'-FAM in FP
[6] = target: hsRBFA B1 mutant K42A,K46A,K47A,K51A (Homo sapiens) (UniProt Q8N0V3); settings: EMSA: 20 mM Tris-HCl pH 8.0, 200 mM NaCl, 37 C 30 min, 200 nM ssRNA or 2 uM dsRNA; recombinant protein; protein details: His6-MBP N-terminal; label: 5'-FAM in FP
[7] = target: T3, hsRBFA B2 mutant K53A,K54A,K55A,K70A,K73A (Homo sapiens) (UniProt Q8N0V3); settings: EMSA: 20 mM Tris-HCl pH 8.0, 200 mM NaCl, 37 C 30 min, 200 nM ssRNA or 2 uM dsRNA; recombinant protein; protein details: His6-MBP N-terminal; label: 5'-FAM in FP
T3 sequence (looked up, limits assumed): T2 sequence (looked up) with K12A, K13A, K14A, K29A, K32A

[8] = target: T4, hsRBFA KH-Ct (Homo sapiens) (UniProt Q8N0V3); settings: EMSA: 20 mM Tris-HCl pH 8.0, 200 mM NaCl, 37 C 30 min, 200 nM ssRNA or 2 uM dsRNA, recombinant protein, residues 86-343, protein details: His6-MBP N-terminal
T4 sequence (looked up): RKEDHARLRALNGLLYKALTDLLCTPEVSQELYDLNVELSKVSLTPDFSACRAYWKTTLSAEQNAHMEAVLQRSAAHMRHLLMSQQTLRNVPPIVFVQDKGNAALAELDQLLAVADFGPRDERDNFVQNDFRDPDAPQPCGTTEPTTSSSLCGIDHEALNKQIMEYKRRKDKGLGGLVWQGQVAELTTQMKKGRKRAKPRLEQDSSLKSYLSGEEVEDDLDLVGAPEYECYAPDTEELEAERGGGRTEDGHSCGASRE

[9] = tested on: hsRBFA N-mut K42A,K46A,K47A,K51A,K53A,K54A,K55A,E59A,K70A,K73A,E75A,E88A,D89A (Homo sapiens); settings: EMSA: 20 mM Tris-HCl pH 8.0, 200 mM NaCl, 37 C 30 min, 200 nM ssRNA or 2 uM dsRNA; recombinant protein; protein details: His6-MBP N-terminal; label: 5'-FAM in FP
[10] = target: T5, hsRBFA near full-length (Homo sapiens) (UniProt Q8N0V3); settings: EMSA: 20 mM Tris-HCl pH 8.0, 200 mM NaCl, 37 C 30 min, 200 nM ssRNA or 2 uM dsRNA, recombinant protein, residues 42-343, protein details: His6-MBP N-terminal
T5 sequence (looked up): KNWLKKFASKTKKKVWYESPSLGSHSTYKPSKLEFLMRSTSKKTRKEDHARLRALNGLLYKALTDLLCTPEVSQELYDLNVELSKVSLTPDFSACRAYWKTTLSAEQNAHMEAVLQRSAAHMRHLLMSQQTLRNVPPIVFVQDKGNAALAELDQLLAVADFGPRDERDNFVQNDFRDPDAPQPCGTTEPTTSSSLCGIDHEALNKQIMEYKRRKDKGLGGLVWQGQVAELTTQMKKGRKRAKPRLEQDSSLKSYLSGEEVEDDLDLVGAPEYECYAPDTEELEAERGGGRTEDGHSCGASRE

| Sequence | binding result [1] | binding result [2] | also measured |
| --- | --- | --- | --- |
| AGUGCACUUG [ssRNA-4] | no binding | no binding |  |
| CGCACCACAAGCG [h44-2] |  | binds |  |
| CUCCUCGAAGGAGGAG [h44-1] |  | binds |  |
| GACGAAC [ssRNA-3'end] |  | no binding |  |
| GAGGAGACAA [ssRNA-1] | no binding | no binding |  |
| GGCGUCACCACAAGUCGCC [h44-3] |  | binds |  |
| GGCGUCACCCUCUUCGGAGACAAGUCGCC [h44] |  |  | binding result [3]: no binding; binding result [4]: binds; binding result [5]: no binding; binding result [6]: binds more weakly; binding result [7]: binds more weakly; binding result ([8]; label: 5'-FAM in FP): no binding; binding result [9]: no binding; binding result ([10]; label: 5'-FAM in FP): binds |
| GGGCCCGUAACCC [h44-4] |  | binds |  |
| GGUGGCGGUGCUUCAUUCGUGAAGCGCGUCACC [h28] |  |  | binding result [8]: no binding; binding result [10]: binds |
| GUCGUAACAU [ssRNA-2] | no binding | no binding |  |
| UAAGUGUACU [ssRNA-3] | no binding | no binding |  |
| UAAGUGUACUGGAAAGUGCACUUG [h45] |  |  | binding result [8]: no binding; binding result [10]: binds |

Substitutions are numbered along the chain they refer to. For some of these results: A negative result means that nothing was seen under these conditions. For some of these results: At least one verdict was read from the data and is not stated in words by the source. For some of these results: Protein sequences can lack the tags named with them. For some of these results: The exact form of at least one protein or probe is not confirmed. For some of these results: Weaker means in comparison with the reference protein, sequence or condition of that experiment.
